In US7049295B2, “Compounds and use thereof to modify transport across cell membranes” (Biotransys Limited, priority 1999, dated 2006):

What follows are sequences tested on HUVECs (assay: Transcellular transport of horse radish peroxidase (HRP) across a cell monolayer on filter). Conditions: +5 μM biovector.
Format: cell-based, human
Protocol: Transport of horse radish peroxidase (HRP) across a cellular membrane was measured using the apparatus shown schematically in FIG. 4, with the addition of biovectors (BVS1 etc). The apparatus comprises upper and lower compartments (1, 2 respectively) separated by a filter 3 on which the cells 4 are grown. HRP and biovectors are added to the medium in the upper compartment 1, and HRP is assayed in the lower compartment 2.
Transcellular transport was determined as above for the HUVECs studies. […]

Sequence | Specific resistance Across monolayer
AGIGALFLGFLGAAG [BVS16] | >350 Ohms/cm^−2
AVGIGALFLGFLGAAG [BVS1] | >350 Ohms/cm^−2
GVFVLGFLGFLATAGS [BVS9] | >350 Ohms/cm^−2
GVFVLGLFGFLA [BVS5] | >350 Ohms/cm^−2
